According to paper PMC7732531, “Comparable Intestinal and Hepatic First-Pass Effect of YL-IPA08 on the Bioavailability and Effective Brain Exposure, a Rapid Anti-PTSD and Anti-Depression Compound” (Frontiers in Pharmacology, 2020):

What was measured:
Caco-2 cells = experiment: Transcellular transport experiment with Caco-2 cells
Procedure: (§1) Caco-2 cell lines were cultured (ATCC, Manassas, VA, United States) as described previously ([Liu et al., 2014]). Briefly, the cells were cultured at 37°C in 5% CO2 at 90% humidity in DMEM high glucose medium containing 20% fetal bovine serum, 1% nonessential amino acids, 100 U/ml penicillin and 1% streptomycin. For the efflux studies, the cells were seeded onto polyethylene terephthalate Millicell® cell culture inserts (0.4 μm pore size, 6.5 mm diameter, Millipore Corporation, Billerica, MA, United States) at a density of 1.7 × 10^5 cells/ml. The culture medium was refreshed on the day after seeding, after which it was refreshed every other day and on the day before the transport experiment. The cells were cultured for 20–22 days after seeding and then evaluated by measuring the transepithelial electrical resistance (TEER) (Millicell ERS®, Millipore Corporation) before experiments. […] Transepithelial permeability studies for YL-IPA08 (10 μM) were conducted from apical to basolateral side (A-B) and basolateral to apical side (B-A) for 120 min 0.2% BSA was included in the receiver solution to avoid nonspecific binding. At 60, 90, and 120 min, half volume of solution from receiver side was withdrawn, and same volume of HBSS was immediately added. Obtained samples were precipitated by adding 4× volumes of acetonitrile containing IS and centrifuged. The supernatants were stored in −20°C until further analysis by LC-MS/MS.
(§2) The in vitro t1/2 in liver microsomal incubation was calculated from the semi-log plot of percentage remaining vs. incubation time and intrinsic clearance (Clint, ml/min/mg protein) was calculated as Eq. 1: CLint=0.693/in vitro t1/2×volume of incubation (μl)/amount of microsomal protein in incubation (mg) (1) ([Suzuki et al., 2003]).Apparent permeability was obtained according to the equation Papp = (dQ/dt)/(A × C0), where dQ/dt is the mass transport rate (determined from the slope of the amount transported vs. time plot), A is the surface area of the monolayer, and C0 is the initial concentration of YL-IPA08 in the donor chamber ([Suzuki et al., 2003]). The efflux ratio was calculated for each study using the following equation: […] = Papp(B–A)/Papp(A–B), where Papp(B–A) and Papp(A–B) represent apparent drug permeability in the B to A and A to B direction, respectively. An efflux ratio greater than 2 indicates net efflux.

[1] = as above; conditions: human, Caco-2
Procedure: as §1, §2

[2] = male, Sprague-Dawley (SD), rat, in vivo, po, 1 mg/kg

Row | Structure (SMILES) | Concentration, A-B-A-90min (Caco-2 cells; Caco-2, A→B, apical (donor) side, 90 min) [µM] | Concentration, A-B-B-90min (Caco-2 cells; Caco-2, A→B, basolateral (receiver) side, 90 min) [µM] | Concentration, B-A-A-90min (Caco-2 cells; Caco-2, B→A, apical (receiver) side, 90 min) [µM] | Concentration, B-A-B-90min (Caco-2 cells; Caco-2, B→A, basolateral (donor) side, 90 min) [µM] | Concentration, DOA (Caco-2 cells; Caco-2, apical donor at time 0) [µM] | Concentration, DOB (Caco-2 cells; Caco-2, basolateral donor at time 0) [µM] | Papp A→B at 120 min, 10 μM [1] [×10⁻⁶ cm/s] | Papp B→A at 120 min, 10 μM [1] [×10⁻⁶ cm/s] | efflux ratio at 120 min, 10 μM [1] | AUC [2] [h･ng/ml]
1 | CC(C)NCC(O)COc1ccc(CC(N)=O)cc1 (stereo not shown) [Atenolol] | 7.683 ± 1.484 | 0.002 ± 0.001 | 0.01 ± 0.005 | 9.117 ± 0.846 | 10.55 ± 0.707 | 10.337 ± 0.574 | 0.1 ± 0.06 | 0.12 ± 0.11 | 1.21 | –
2 | CCN(Cc1ccccn1)C(=O)Cc1c(-c2ccc(Cl)c(Cl)c2)nc2cc(C)ccn12 [YL-IPA08] | – | – | – | – | – | – | – | – | – | 339 ± 93
